According to PubChem BioAssay AID1688 (National Center for Advancing Translational Sciences (NCATS), 2009):
The campaign covered roughly 220,000 compounds. About 2,400 (1.1%) were called active. Inconclusive results, whose numbers are uncertain, are shown with a selection of clear calls. The call rests on the fitted dose curve; in most records, active means well fitted inhibition curve with a large enough effect; inconclusive means small, poorly fitted or top-dose-only effect, or effect the other way; inactive means no such curve, though single readings can be large or run the other way. Potencies beside an inconclusive call are fits to weak or partial responses and may not hold up.

Assay: qHTS Multiplex Assay to Identify Dual Action Probes in a Cell Model of Huntington: Aggregate Formation (GFP); further: nearly all actives have a fitted effect of over 60% in size
Settings: PC12 HttQ103-GFP aggregates, Acumen cytometry, 40 h; activity change, negative = inhibition: at 46.1 µM (top of the series) unless noted
How it was run: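 PC12 cells stably carrying ecdysone-inducible HTT exon 1 Q103–GFP were induced with tebufenozide (100 nM final) and treated with library compounds in titration. GFP aggregates in lysates were counted by laser scanning cytometry.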
On the % scale 0 is the no-effect control and ±100 the full control effect; potency means the concentration at half of the fitted maximal effect.

Structure (SMILES)	Potency	activity change, negative = inhibition
O=C(c1ccc2ccccc2c1)N1CCN(c2ccc(O)cc2)CC1	inconclusive: 35.5 µM [inhibitor, single point]	
CN1CCc2c(OCC(=O)N3N=C(c4cccs4)CC3c3ccc(F)cc3)cccc2C1=O (stereo not drawn)	inconclusive: 3.98 µM [inhibitor, full curve]	
Cc1[nH]c2ccccc2c1C(=O)CSc1nc2ccccc2c(=O)n1-c1ccccc1F	inconclusive: 2.24 µM [activator, partial curve]	
Cn1c(=O)n(CCc2ccccc2)c(=O)c2c1nc1n2CCCN1CCc1ccccc1	inconclusive: 15.8 µM [inhibitor, partial curve, poor fit]	
CCOC(=O)c1ccc(NC(=O)NCc2ccccc2OC)cc1	inconclusive: 5.01 µM [activator, partial curve, poor fit]	
CC(C)OC(=O)CN1C(=O)S/C(=C/c2ccc(N3CCCCC3)o2)C1=O	inconclusive: 25.1 µM [activator, single point]	
CC(C)(C)OC(=O)N1CC=C2C(C#N)=C(N)C(C#N)(C#N)C(c3cccs3)C2C1 (stereo not drawn)	inactive	
CCN(CC)S(=O)(=O)c1cc(NC(=O)CSc2nccn2C)ccc1C	inconclusive: 3.98 µM [activator, full curve, poor fit]	
O=C(CSc1nnc2ncccn12)N1CCCCCC1	active: 0.562 µM	
CCn1cc(C(=O)O)c(=O)c2cc(F)c(N3CCN(S(=O)(=O)c4ccc(NC(C)=O)cc4)CC3)cc21	inconclusive: 0.562 µM [inhibitor, partial curve, poor fit]	
Cn1c(=O)c2c(nc(Cl)n2Cc2ccncc2)n(C)c1=O	inconclusive: 1 µM [activator, single point]	
Oc1cccc2ccc(/C=C/c3ccc(Br)s3)nc12	inconclusive: 35.5 µM [inhibitor, single point]	
Cc1cc(O)c(NC(=O)c2ccco2)cc1C	inactive	
CN(C)c1ccc(/C=C(\C#N)c2ccccn2)cc1	inactive	
Cc1csc2nc(CSc3nc4ccccc4o3)cn12	inconclusive: 35.5 µM [inhibitor, single point]	
CCc1ccc(C(=O)CSc2n[nH]c(-c3ccncc3)n2)cc1	inconclusive: 15.8 µM [inhibitor, partial curve]	
CCOC(=O)C1=C(N)Oc2c(c(=O)[nH]c3ccccc23)C1c1ccccc1 (stereo not drawn)	inconclusive: 11.2 µM [activator, partial curve]	
Cc1ccc(S(=O)(=O)NCc2ccc(C(=O)N3CCN(Cc4ccccc4)CC3)cc2)cc1		inactive: -4.25% [at 1.84 µM]
CC(Cc1ccccc1)N/C=C1/CC(=O)NC1=O (stereo not drawn)	inconclusive: 0.501 µM [inhibitor, full curve, poor fit]	
CCn1cc(C(=O)NCCC2=CCCCC2)c(=O)c2cc(S(=O)(=O)N(C)C)ccc21	inconclusive: 31.6 µM [inhibitor, single point]	
O=C1CN(C(=O)COC(=O)c2ccc(N3CCCCCC3)c([N+](=O)[O-])c2)c2ccccc2N1	inconclusive: 3.55 µM [inhibitor, single point]	
O=C(CSc1nnc(-c2ccc(Br)cc2)o1)N1CCN(C(=O)c2ccco2)CC1	inconclusive: 35.5 µM [inhibitor, single point]	

As a short view, part of the list above.
Structure (SMILES)	Potency	activity change, negative = inhibition
CC(C)(C)OC(=O)N1CC=C2C(C#N)=C(N)C(C#N)(C#N)C(c3cccs3)C2C1 (stereo not drawn)	inactive	
CCN(CC)S(=O)(=O)c1cc(NC(=O)CSc2nccn2C)ccc1C	inconclusive: 3.98 µM [activator, full curve, poor fit]	
O=C(CSc1nnc2ncccn12)N1CCCCCC1	active: 0.562 µM	

Following part

Structure (SMILES)	Potency	activity change, negative = inhibition
CCOc1ccc2[nH]c(=O)c(CN(Cc3ccco3)C(=O)c3cccc(F)c3)cc2c1	inconclusive: 35.5 µM [inhibitor, single point]	
CC(C)c1cc(C(N)=O)c(NC(=O)c2cccc(COc3ccc(Br)cc3)c2)s1	inconclusive: 35.5 µM [inhibitor, single point]	
Cc1oc(-c2cccc(C(F)(F)F)c2)nc1CN1CCOCC1	inconclusive: 6.31 µM [inhibitor, single point]	
CCc1nc(Nc2ccc(N3CCN(C(C)=O)CC3)cc2)c2oc3ccccc3c2n1	inconclusive: 25.1 µM [inhibitor, single point]	
COc1ccccc1CN1C[C@@H]2C[C@@H](c3[nH]c4ccc(C)cc4c3C)N3CCC[C@@]23C1=O		inactive: -0.602% [at 9.22 µM]
CCn1cc(C(=O)NCc2cccs2)c(=O)c2cc(S(=O)(=O)N3CCOCC3)ccc21		inactive: -13.3% [at 9.22 µM]
O=C(COC(=O)c1cc([N+](=O)[O-])ccc1NCCO)NCc1cccs1	inactive	
COc1ccc(CCN(C)C(=O)CCc2nnc(-c3ccccc3)o2)cc1OC		inactive: 4% [at 9.22 µM]
O=C(c1cc2nc(-c3cccs3)cc(C(F)(F)Cl)n2n1)N1CCCc2ccccc21	inconclusive: 20 µM [inhibitor, partial curve]	
CCCn1c2c(c(O)c(C(=O)NCCCN(CC)CC)c1=O)CCCC2	inactive	
COc1ccc(-n2c(-c3ccccc3)cc3c2CCCC3=O)cc1	inconclusive: 31.6 µM [inhibitor, single point]	
COc1ccc2cc3cc(C(=O)Nc4cc(OC)c(OC)c(OC)c4)oc3nc2c1	inactive	
O=C(NCc1ccncc1)c1ccc(Oc2ccccc2)cc1	active: 11.2 µM	
CN(c1cccc(NC(=O)c2ccc(C(C)(C)C)cc2)c1)S(C)(=O)=O	active: 11.2 µM	
COc1ccc(-c2nnc(Nc3nc4c(OC)cccc4s3)o2)cc1	inconclusive: 12.6 µM [inhibitor, partial curve, poor fit]	
NNC(=O)c1[nH]c2ccc(Cl)cc2c1-c1ccccc1		inactive: -31.3% [at 9.22 µM]
CCN(CC)CCNC(=O)c1ccc(NC(=O)c2ccc(Cl)c(S(=O)(=O)Nc3ccccc3OC)c2)cc1	inactive	
CCN1CCN(c2cc(C)c3cc(NC(=S)N4CCN(c5ccc(F)cc5)CC4)ccc3n2)CC1	inconclusive: 35.5 µM [inhibitor, single point]	
CC(C(O)c1ccc(O)cc1)N1CCC(Cc2ccccc2)CC1 (stereo not drawn)	inactive	
CCOC(=O)c1sc(-c2ccc(Br)cc2)cc1N	inactive	
CN1CCCN(C(=O)C2CCC(C(=O)N3CCCN(C)CC3)CC2)CC1 (stereo not drawn)	inconclusive: 4.47 µM [inhibitor, single point]	
